PubChem BioAssay AID1259273 – Sanger Institute | 2017

Test: 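Find kinase knock-downs that boost killing of colorectal cancer cells by anchor drugs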 (follow-up of hits)
Cells: human NCI-H630 colorectal cancer cells
Knock-down reagent: single siRNA against human genes
Challenge: anchor drugs BYL719 at 1 µM, cetuximab at 5 µg/ml or trametinib at 10 nM, or DMSO vehicle alone
Detection: 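Replicate-averaged viability scaled to non-targeting control pool wells, plus per-drug synergy scores comparing knock-down with drug to knock-down only and drug only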
Direction: synergy score with trametinib and synergy score with BYL719 and synergy score with cetuximab: higher = stronger synergy, more synthetic lethal; viability with trametinib: higher = more viable cells with knock-down plus drug; viability, vehicle only: higher = more viable cells after knock-down
Rule for the call: 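a duplex counts as synthetic lethal if its averaged synergy score exceeds 0.10 with BYL719, cetuximab or trametinib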
Here is one part, drawn at random, of 160 reagents. In the full data, 36 (22%) got an active call. 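Four distinct siRNA duplexes per gene; each call applies to one duplex and is not gene-level validation across cell lines.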 A number with no mark means an inactive call. The numbers tell different reagents against one gene apart. Viability is capped at 1. Not given: the amount of reagent, the time to read-out.

gene symbol	reagent no.	synergy score with trametinib	synergy score with BYL719	synergy score with cetuximab	viability with trametinib (fraction of control)	viability, vehicle only (fraction of control)
COASY	1	0.128 (active)	-0.0791	-0.121	0.746	0.975
COASY	2	-0.143	0.0106	-0.105	0.751	0.678
COASY	3	-0.0115	-0.0701	0.0148	0.651	0.714
COASY	4	0.0482	-0.0184	0.0431	0.615	0.739
HSPB8	1	0.206 (active)	0.0229	0.0732	0.575	0.871
HSPB8	2	-0.088	-0.133	-0.144	0.985	1
HSPB8	3	0.0514	-0.146	-0.0518	0.845	1
HSPB8	4	0.132 (active)	-0.0888	-0.0842	0.764	1
PIK3CA	1	0.00826	-0.0606	-0.0903	0.881	0.992
PIK3CA	2	0.0359	-0.205	0.0139	0.798	0.93
PIK3CA	3	0.0144	-0.115	-0.23	0.882	1
PIK3CA	4	-0.103	-0.146	-0.23	1	1
GTF2H1	1	-0.0289	-0.0595	-0.0449	0.88	0.949
GTF2H1	2	-0.0105	-0.146	0.0329	0.907	1
GTF2H1	3	-0.068	-0.131	-0.0801	0.926	0.957
GTF2H1	4	0.11 (active)	0.00378	0.0414	0.727	0.934

The list goes on (2 carried over from the part before).
gene symbol	reagent no.	synergy score with trametinib	synergy score with BYL719	synergy score with cetuximab	viability with trametinib (fraction of control)	viability, vehicle only (fraction of control)
GTF2H1	3	-0.068	-0.131	-0.0801	0.926	0.957
GTF2H1	4	0.11 (active)	0.00378	0.0414	0.727	0.934
PINK1	1	-0.103	-0.146	-0.229	1	1
PINK1	2	0.0831	-0.128	-0.165	0.693	0.865
PINK1	3	0.0421	-0.0614	-0.0108	0.682	0.808
PINK1	4	0.147 (active)	-0.0735	0.0331	0.746	0.996
MAPK4	1	-0.103	-0.146	-0.135	1	1
MAPK4	2	-0.0495	-0.143	0.0103	0.946	1
MAPK4	3	-0.0224	-0.146	-0.015	0.919	1
MAPK4	4	-0.0214	-0.0646	-0.0334	0.693	0.749
